From patent US20050222043A1, “Use of proteasome inhibitor in the treatment of fibrotic diseases” (priority 2002, published 2005)

Tested on: spontaneously hypertensive rats (SH-rats)
Assay: Animal study: tolerability, blood pressure, weights, blood values in SH-rats
Format: in vivo, rat
Experimental: Male SH-rats of the same age were obtained from the Jackson Laboratory, Maine, USA. The animals were maintained according to the international guidelines for the keeping und use of laboratory animals. 6-week-old rats were treated for 12 weeks with MG132 (1 mg per kg body weight), 0,1% DMSO as solvent control or with physiological saline (n=10 per group, daily intraperitoneal injection). The animals were fed with a high salt diet (drinking water with 2% sodium chloride). The blood pressure was measured weekly by means of the standard tail-cuff method. The blood values and the standard laboratory markers of the renal and hepatic functions were determined 6 weeks after the treatment and at the end of the study by means of standard methods. At the end of the study, the animals were anaesthetised by means of an intraperitoneal injection of a 20% urethane solution (0,9 g per kg body weight) and the left-ventricular pressure parameters were determined as being described by Saragoca, M. et al. (1981) Hypertension, 3, 380-385. The organs were withdrawn, weighed and either shock-frozen in liquid nitrogen or embedded in paraffin for the histological analysis. Since no difference was observed between the DMSO-treated and the salt-treated SH-rats in respect to the above mentioned parameters, the DMSO-treated animals served as a control for the MG132-treatment.

SMILES: CC(C)C[C@@H](C=O)NC(=O)[C@H](CC(C)C)NC(=O)[C@H](CC(C)C)NC(=O)OCc1ccccc1 [MG132, Z-Leu-Leu-Leu-al] (Cbz-Leu-Leu-Leu-aldehyde)
- HG/KG (heart weight/body weight) (1 mg/kg MG132): 4.1 ± 0.34 mg/g
- Heart Weight (1 mg/kg MG132): 1.18 ± 0.07 g
- Systolic BD (blood pressure) (1 mg/kg MG132, tail-cuff): 191.43 ± 11.2 mm Hg
- change in heart weight (in words) (12 weeks): no significant change
- change in systolic blood pressure (in words) (12 weeks): no significant change

Peptide text beside a SMILES is read from it. * marks the point of attachment. Cbz = O=C(OCc1ccccc1)*
